# The supplement of paper PMC8960247
# Tested on: 621-102 (TSC2-deficient)
# Assay: relative viability vs DMSO (fraction); higher = less cytotoxic
# Conditions: serum: 0.1% FBS, 72 h
SMILES,relative viability (0.0128 nM),relative viability (0.064 nM),relative viability (0.32 nM),relative viability (1.6 nM),relative viability (8 nM),relative viability (40 nM),relative viability (200 nM),relative viability (1000 nM),relative viability (5000 nM)
CNC(=O)Nc1ccc(-c2nc(N3CC4CCC(C3)O4)c3cnn(C4CCC5(CC4)OCCO5)c3n2)cc1,0.89,0.916,0.893,0.934,0.921,0.753,0.462,0.283,0.143
Cc1ncc(-c2ccnc(Nc3ccc(S(C)(=O)=O)cc3)n2)n1C(C)C [AZD5438],1.06,1.09,1.11,1.04,0.79,0.777,0.634,0.167,0.0225
Cc1cccc(-c2nn3c(c2-c2ccnc4ccc(C(N)=O)cc24)CCC3)n1,0.651,0.535,0.598,0.894,0.604,0.609,0.615,0.661,0.812
O=C(NOC[C@H](O)CO)c1ccc(F)c(F)c1Nc1ccc(I)cc1F,0.672,0.752,0.798,0.784,0.665,0.694,0.797,0.513,0.331
COc1ccc(-c2ccc3c(N4CCOCC4)nc(N4C[C@@H](C)O[C@@H](C)C4)nc3n2)cc1CO,0.718,0.806,0.711,0.839,0.845,0.818,0.79,0.854,0.651
CC(C)NCC(O)c1ccc(O)c(O)c1 (stereo not drawn) [Isoprenaline HCl],0.529,0.516,0.657,0.788,0.641,0.538,0.458,0.714,0.656
CNC(=O)c1ccc(C)c(-n2c(C)cc(OCc3ccc(F)cc3F)c(Br)c2=O)c1,0.75,0.685,0.793,0.805,0.72,0.709,0.65,0.722,0.466
Cc1csc(-c2nnc(Nc3ccc(Oc4ncccc4-c4ccnc(N)n4)cc3)c3ccccc23)c1 [AMG 900],0.775,0.665,0.533,0.0233,0.0178,0.0196,0.0325,0.0435,0.028
CC(C)(C)Cn1c(N)nc2ccc(-c3[nH]c(C(C)(C)C)nc3-c3ccc(F)cc3)nc21,1.08,1.07,1.06,1.09,0.988,0.984,0.935,0.951,0.743
COC(=O)Nc1ccc(-c2nc(N3CCOCC3)c3cnn(C4CCN(Cc5cccnc5)CC4)c3n2)cc1 [WYE-687],0.0918,0.439,0.787,0.773,0.701,0.857,0.918,0.778,0.303
CNC(=C[N+](=O)[O-])NCCSCc1ccc(CN(C)C)o1 [Ranitidine],0.862,0.852,0.861,0.912,0.781,0.848,0.721,0.2,0.0164
COC(=O)N[C@H](C(=O)N1CCC[C@H]1c1ncc(-c2ccc(-c3ccc(-c4cnc([C@@H]5CCCN5C(=O)[C@@H](NC(=O)OC)C(C)C)[nH]4)cc3)cc2)[nH]1)C(C)C,0.803,0.797,0.921,0.838,0.827,0.716,0.716,0.648,0.645
CC(C)C(=O)Oc1ccc(CO)cc1[C@H](CCN(C(C)C)C(C)C)c1ccccc1 [Fesoterodine Fumarate],1.15,1.08,0.897,0.254,0.803,0.78,0.325,0.542,0.682
CN1CC(=O)N2[C@H](c3ccc4c(c3)OCO4)c3[nH]c4ccccc4c3C[C@@H]2C1=O [Tadalafil],0.957,0.978,0.82,0.948,0.788,0.738,0.476,0.307,0.694
CC(C)(C)c1cnc(CSc2cnc(NC(=O)C3CCNCC3)s2)o1,0.817,0.892,0.763,0.803,0.753,0.4,0.0133,0.00953,0.00991
CC(C)(Oc1ccc(C2CC2(Cl)Cl)cc1)C(=O)O (stereo not drawn) [Ciprofibrate],0.688,0.692,0.724,0.0997,0.795,0.768,0.813,0.924,0.771
CC(=O)SCC(Cc1ccccc1)C(=O)NCC(=O)OCc1ccccc1 (stereo not drawn) [Racecadotril],0.638,0.778,0.834,0.894,0.915,0.89,0.971,0.829,0.87
CN(C)CCCN1c2ccccc2Sc2ccc(Cl)cc21 [Chlorpromazine HCl],0.757,0.75,0.788,0.796,0.789,0.779,0.738,0.644,0.0672
CNC(C)C1CCC(N)C(OC2C(N)CC(N)C(OC3OCC(C)(O)C(NC)C3O)C2O)O1 (stereo not drawn) [Gentamycin sulfate],0.724,0.761,0.726,0.748,0.689,0.645,0.634,0.618,0.291
CC(=O)O[C@H]1CC[C@@]2(C)C(=CC[C@@H]3[C@@H]2CC[C@]2(C)C(c4cccnc4)=CC[C@@H]32)C1 [Abiraterone Acetate],0.622,0.692,0.73,0.686,0.618,0.629,0.596,0.307,0.029
NC(=O)c1ccc(I)c([N+](=O)[O-])c1 [BSI-201],0.885,0.909,0.915,0.848,0.849,0.794,0.782,0.729,0.817
CCOC(=O)[C@H](CCc1ccccc1)N[C@@H](C)C(=O)N1CCC[C@H]1C(=O)O [Enalapril Maleate],0.762,0.721,0.741,0.759,0.669,0.7,0.635,0.723,0.711

# Retrieved one by one from above (two):
SMILES,relative viability (0.0128 nM),relative viability (0.064 nM),relative viability (0.32 nM),relative viability (1.6 nM),relative viability (8 nM),relative viability (40 nM),relative viability (200 nM),relative viability (1000 nM),relative viability (5000 nM)
O=C(NOC[C@H](O)CO)c1ccc(F)c(F)c1Nc1ccc(I)cc1F,0.672,0.752,0.798,0.784,0.665,0.694,0.797,0.513,0.331
Cc1cccc(-c2nn3c(c2-c2ccnc4ccc(C(N)=O)cc24)CCC3)n1,0.651,0.535,0.598,0.894,0.604,0.609,0.615,0.661,0.812

# Where a name gives a salt, the structure may show the parent alone. The data scatter; read single values as rough.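 The cells are immortalized human renal angiomyolipoma cells carrying an empty vector, so TSC2 stays lost. Viability was read by a luminescent ATP assay and normalized to vehicle-treated wells on each plate, in low-serum medium where TSC2-rescued cells do not grow.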
